Results are given in words; binding and its absence hold for the method and conditions named. In cells and extracts the contact can be indirect. Some binding calls cover weakened binding; strength is not graded here. Values belong to the molecule of their own block, whether it stands above or below them.
Experiments:
[1] = molecular target: Nucleotide-binding domain and leucine-rich repeat-containing protein X1 (NLRX1), rat, endogenous (rat (endogenous in PMVECs)) (UniProt Q5FVQ8); assay: co-IP; endogenous proteins; immunoprecipitation of NLRX1 from PMVEC lysates, blot for VDAC1 (Supplementary Figure S4); treatment of the cells not given
[2] = molecular target: T1, MAVS, rat, endogenous (rat (endogenous in PMVECs)) (UniProt Q66HG9); assay: co-IP; endogenous proteins; rat PMVECs treated with sodium azide for 3 h; lysate in IP lysis buffer (Pierce) with 2 ug primary antibody at 4°C overnight, Protein G-Sepharose or Protein A/G agarose 60 min at 4°C, four washes; western blot; isotype IgG as control
T1 sequence: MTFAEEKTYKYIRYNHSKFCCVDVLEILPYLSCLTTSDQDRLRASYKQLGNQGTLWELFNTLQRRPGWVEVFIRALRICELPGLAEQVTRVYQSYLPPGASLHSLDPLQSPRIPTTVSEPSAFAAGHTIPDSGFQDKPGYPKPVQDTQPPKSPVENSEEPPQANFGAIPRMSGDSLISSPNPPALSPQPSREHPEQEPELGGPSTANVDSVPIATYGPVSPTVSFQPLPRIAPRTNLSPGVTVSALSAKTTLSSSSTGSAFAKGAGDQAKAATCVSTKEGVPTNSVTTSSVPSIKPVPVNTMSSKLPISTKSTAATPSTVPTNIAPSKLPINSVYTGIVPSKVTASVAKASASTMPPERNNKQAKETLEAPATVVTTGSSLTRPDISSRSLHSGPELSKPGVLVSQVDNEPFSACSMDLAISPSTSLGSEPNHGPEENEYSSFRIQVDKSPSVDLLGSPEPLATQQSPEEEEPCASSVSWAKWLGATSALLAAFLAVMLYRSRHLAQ

Chains of the proteins cited; added tags and fusions are not shown. Residues count along the entry.
UniProt Q5FVQ8, residues 85-973: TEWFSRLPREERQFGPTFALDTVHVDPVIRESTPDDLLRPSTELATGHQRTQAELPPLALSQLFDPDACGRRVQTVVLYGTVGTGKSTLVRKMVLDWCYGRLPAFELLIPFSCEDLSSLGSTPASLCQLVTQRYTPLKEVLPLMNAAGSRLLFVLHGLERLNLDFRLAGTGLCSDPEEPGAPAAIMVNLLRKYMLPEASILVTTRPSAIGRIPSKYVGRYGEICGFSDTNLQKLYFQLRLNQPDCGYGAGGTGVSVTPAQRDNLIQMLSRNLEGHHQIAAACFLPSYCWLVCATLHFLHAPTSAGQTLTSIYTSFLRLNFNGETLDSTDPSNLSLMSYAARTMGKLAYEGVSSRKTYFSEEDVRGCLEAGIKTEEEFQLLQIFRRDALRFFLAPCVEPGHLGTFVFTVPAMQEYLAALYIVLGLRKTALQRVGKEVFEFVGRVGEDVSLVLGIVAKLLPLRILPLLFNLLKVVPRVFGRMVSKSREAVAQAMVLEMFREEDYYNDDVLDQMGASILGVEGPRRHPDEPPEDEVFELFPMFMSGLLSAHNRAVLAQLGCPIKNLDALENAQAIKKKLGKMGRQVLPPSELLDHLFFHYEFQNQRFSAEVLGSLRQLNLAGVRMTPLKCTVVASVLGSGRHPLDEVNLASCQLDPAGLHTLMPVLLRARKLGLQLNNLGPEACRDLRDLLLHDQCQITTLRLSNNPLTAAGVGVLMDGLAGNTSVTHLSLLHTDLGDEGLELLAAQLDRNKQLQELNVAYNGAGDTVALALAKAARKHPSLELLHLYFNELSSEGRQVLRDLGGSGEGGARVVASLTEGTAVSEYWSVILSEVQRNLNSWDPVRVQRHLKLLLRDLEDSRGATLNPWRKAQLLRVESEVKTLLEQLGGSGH
UniProt Q9Z2L0: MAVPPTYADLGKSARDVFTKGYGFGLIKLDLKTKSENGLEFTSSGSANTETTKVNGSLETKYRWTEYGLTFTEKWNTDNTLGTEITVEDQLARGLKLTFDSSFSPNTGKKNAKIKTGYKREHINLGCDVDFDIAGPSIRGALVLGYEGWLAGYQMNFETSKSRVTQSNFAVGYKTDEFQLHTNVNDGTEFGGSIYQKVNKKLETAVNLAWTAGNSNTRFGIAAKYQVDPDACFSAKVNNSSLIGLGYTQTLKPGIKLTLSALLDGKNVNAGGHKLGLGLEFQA
UniProt Q6TMG5: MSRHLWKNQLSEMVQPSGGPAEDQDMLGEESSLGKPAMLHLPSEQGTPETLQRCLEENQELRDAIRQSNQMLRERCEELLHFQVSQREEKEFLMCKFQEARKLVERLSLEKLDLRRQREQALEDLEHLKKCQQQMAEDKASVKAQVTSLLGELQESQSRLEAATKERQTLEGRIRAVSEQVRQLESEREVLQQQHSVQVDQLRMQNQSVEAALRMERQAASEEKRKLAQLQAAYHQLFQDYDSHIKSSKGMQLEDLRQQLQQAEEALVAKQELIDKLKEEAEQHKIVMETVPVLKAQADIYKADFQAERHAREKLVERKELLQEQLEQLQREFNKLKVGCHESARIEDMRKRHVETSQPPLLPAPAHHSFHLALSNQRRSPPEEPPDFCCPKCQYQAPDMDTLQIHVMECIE

[3] = molecular target: T2, TBK1, rat, endogenous (rat (endogenous in PMVECs)) (UniProt D4A7D3); assay: as above
T2 sequence: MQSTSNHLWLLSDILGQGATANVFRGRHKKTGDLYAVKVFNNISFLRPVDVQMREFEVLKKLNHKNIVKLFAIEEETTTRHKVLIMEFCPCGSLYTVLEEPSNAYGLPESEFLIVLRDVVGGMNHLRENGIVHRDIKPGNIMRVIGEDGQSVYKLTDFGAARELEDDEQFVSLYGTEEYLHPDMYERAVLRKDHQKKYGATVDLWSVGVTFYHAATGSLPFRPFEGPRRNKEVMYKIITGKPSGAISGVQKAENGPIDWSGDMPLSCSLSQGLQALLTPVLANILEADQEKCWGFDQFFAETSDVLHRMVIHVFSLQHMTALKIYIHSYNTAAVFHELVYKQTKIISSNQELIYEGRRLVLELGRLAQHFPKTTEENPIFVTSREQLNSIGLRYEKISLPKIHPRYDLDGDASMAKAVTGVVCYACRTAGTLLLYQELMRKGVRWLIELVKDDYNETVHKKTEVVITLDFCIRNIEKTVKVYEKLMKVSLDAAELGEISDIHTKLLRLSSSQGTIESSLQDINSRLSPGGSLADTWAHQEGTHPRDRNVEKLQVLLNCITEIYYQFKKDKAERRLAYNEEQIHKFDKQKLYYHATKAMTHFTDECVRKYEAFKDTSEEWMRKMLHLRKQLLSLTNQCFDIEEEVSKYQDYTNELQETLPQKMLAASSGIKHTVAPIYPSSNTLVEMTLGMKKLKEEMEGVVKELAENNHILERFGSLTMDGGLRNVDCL

[4] = molecular target: T3, phosphorylated TBK1, rat, endogenous (rat (endogenous in PMVECs)) (UniProt D4A7D3); assay: as above
T3 sequence (chain, phosphorylated (p-TBK1; site not printed)): T2 sequence

[5] = molecular target: Nucleotide-binding domain and leucine-rich repeat-containing protein X1 (NLRX1), rat, endogenous (rat (endogenous in PMVECs)) (UniProt Q5FVQ8); assay: co-IP; as a1, but untreated (vehicle, control) PMVECs; immunoprecipitation with anti-NLRX1 antibody
[6] = molecular target: Nucleotide-binding domain and leucine-rich repeat-containing protein X1 (NLRX1), rat, endogenous (rat (endogenous in PMVECs)) (UniProt Q5FVQ8); assay: co-IP; endogenous proteins; rat PMVECs treated with sodium azide for 3 h; lysate in IP lysis buffer (Pierce) with 2 ug primary antibody at 4°C overnight, Protein G-Sepharose or Protein A/G agarose 60 min at 4°C, four washes; western blot; isotype IgG as control

binding [1]: no binding
Molecule: VDAC1, rat, endogenous (from UniProt Q9Z2L0 1-283)

binding [2]: binds
Molecule: NEMO, rat, endogenous (from UniProt Q6TMG5 1-412)

binding [2]: binds | binding [3]: binds | binding [4]: binds
Molecule: Nucleotide-binding domain and leucine-rich repeat-containing protein X1 (NLRX1), rat, endogenous (from UniProt Q5FVQ8 85-973)

binding [2]: binds | binding [6]: binds
B1: TRAF6, rat, endogenous (protein, UniProt B5DF45 1-530)
chain: MSLLNCENSCASSQSSSDCCAAMANSCSAAMKDDSVSGCVSTGNLSSSFMEEIQGYDVEFDPPLESKYECPICLMALREAVQTPCGHRFCKACITKSIRDAGHKCPVDNEILLENQLFPDNFAKREILSLTVKCPNKGCVQKMELRHLEDHQVHCEFALVICPQCQRFFQKCQINKHIIEDCPRRQVSCVNCAVPMPYEEKEIHDQSCPLANIICEYCGTILIREQMPNHYDLDCPTAPVPCTFSVFGCHEKMQRNHLARHLQENTQLHMRLLAQAVHNVNLSLRPCDASSPSRGCRPEDPNYEETVKQLEGRLVRQDHQIRELTAKMETQSMHVSELKRTIRSLEDKVAEMEAQQCNGIYIWKIGNFGMHLKSQEEERPVVIHSPGFYTGRPGYKLCMRLHLQLPTAQRCANYISLFVHTMQGEYDSHLPWPFQGTIRLTILDQSEAVIRQNHEEVMDAKPELLAFQRPTIPRNPKGFGYVTFMHLEALRQGTFIKDDTLLVRCEVSTRFDMGGLRKEGFQPRSTDAGV
binding [5]: no binding (condition: untreated cells (no sodium azide))

binding [5]: no binding | binding [6]: no binding
B2: STING, rat, endogenous (protein, UniProt F1M391 1-379)
chain: MPYSNLHPSIPRPRSYRFKLAAFVLLVGSLMSLWMTGEPPSHTLHYLALHVASQQLGLLLKKLCCLAEELCHVQSRYQGSYWKAVRACVGSPICFMALILLSFYFYCSLENTSDLRLAWHLGILVLSKSLSMTLDLQSLAPAEVSAVCEEKNFNVAHGLAWSYYIGYLKLILPGLQARIRMFNQLHNNMLSGAGSRRLYILFPLDCGVPDDLSVADPNIRFRDMLPQQNTDRAGVKNRAYSNSVYELLENGQPAGACILEYATPLQTLFAMSQDGKAGFSREDRLEQAKLFCRTLEEILADVPESRNHCRLIVYQESEEGNSFSLSQEVLRHIRQEEKEEVTMSGPPTSVAPRPSLLSQEPRLLISGMEQPLPLRTDLI

binding [6]: binds
B3: IKKβ, rat, endogenous (protein, UniProt Q9QY78 1-757)
chain: MSWSPSLPTQTCGAWEMKERLGTGGFGNVIRWHNQVTGEQIAIKQCRQELSPKNRDRWCLEIQIMRRLNHPNVVAARDVPEGMQNLAPNDLPLLAMEYCQGGDLRRYLNQFENCCGLREGAILTLLSDIASALRYLHENRIIHRDLKPENIVLQQGEKRLIHKIIDLGYAKELDQGSLCTSFVGTLQYLAPELLEQQKYTVTVDYWSFGTLAFECITGFRPFLPNWQPVQWHSKVRQKSEVDIVVSEDLNGTVKFSSSSPFPNNLNSVLAERLEKWLQLMLTWQPRQRGVDPQYGPNGCFRALDDILNLKLVHILNMVTGTIHTYPVMEDESLQSLKTRIREDTGILETDQELLQEAGLVLLPDKPATQCISDSKTNEGLTLDMDLVFLFDNSKMSYETQITPRPQPESVSCVLQEPKRNLSFFQMRKVWGQVWHSIQTLKEDCNRLQQGQRAAMMNLLRNNSCLSKMKNAMASTAQQLKAKLDFFKTSIQIDLEKYREQTEFGITSDKLLLAWREMEQAVEQCGRENDVKVLVERMMALQTDIVDLQRSPMGRKQGGTLDDLEEQARELYRRLREKPRDQRTEGDSQDMVRLLLQAIQSFEKKVRVIYSQLSKTVVCKQKALELLPKVEEVVRLMNEDEKTVVRLQEKRQKELWNLLKIACSKVRGPVSGSPDSMNVSRLSHPGHLMSQPSSACDSLPDSDKKSEELVAEAHALCSRLESALQDTVKQQDRSFTTLDWSWLQMEDEERCGLEQACD
binding [5]: no binding (condition: untreated cells (no sodium azide))

binding [6]: binds
B4: MAVS, rat, endogenous (protein, UniProt Q66HG9 1-507)
chain: T1 sequence

binding [2]: binds | binding [6]: binds
B5: TBK1, rat, endogenous (protein, UniProt D4A7D3 1-729)
chain: T2 sequence

binding [6]: binds
B6: phosphorylated TBK1, rat, endogenous (protein, UniProt D4A7D3 1-729)
chain: T2 sequence
modifications: phosphorylated (p-TBK1; site not given)

From article PMC6830126
